# Patent CN105367660A
# Amino acid sequences for entries named in this document (tags omitted). Residues count along the entry.
# UniProt P15941, residues 24-1255: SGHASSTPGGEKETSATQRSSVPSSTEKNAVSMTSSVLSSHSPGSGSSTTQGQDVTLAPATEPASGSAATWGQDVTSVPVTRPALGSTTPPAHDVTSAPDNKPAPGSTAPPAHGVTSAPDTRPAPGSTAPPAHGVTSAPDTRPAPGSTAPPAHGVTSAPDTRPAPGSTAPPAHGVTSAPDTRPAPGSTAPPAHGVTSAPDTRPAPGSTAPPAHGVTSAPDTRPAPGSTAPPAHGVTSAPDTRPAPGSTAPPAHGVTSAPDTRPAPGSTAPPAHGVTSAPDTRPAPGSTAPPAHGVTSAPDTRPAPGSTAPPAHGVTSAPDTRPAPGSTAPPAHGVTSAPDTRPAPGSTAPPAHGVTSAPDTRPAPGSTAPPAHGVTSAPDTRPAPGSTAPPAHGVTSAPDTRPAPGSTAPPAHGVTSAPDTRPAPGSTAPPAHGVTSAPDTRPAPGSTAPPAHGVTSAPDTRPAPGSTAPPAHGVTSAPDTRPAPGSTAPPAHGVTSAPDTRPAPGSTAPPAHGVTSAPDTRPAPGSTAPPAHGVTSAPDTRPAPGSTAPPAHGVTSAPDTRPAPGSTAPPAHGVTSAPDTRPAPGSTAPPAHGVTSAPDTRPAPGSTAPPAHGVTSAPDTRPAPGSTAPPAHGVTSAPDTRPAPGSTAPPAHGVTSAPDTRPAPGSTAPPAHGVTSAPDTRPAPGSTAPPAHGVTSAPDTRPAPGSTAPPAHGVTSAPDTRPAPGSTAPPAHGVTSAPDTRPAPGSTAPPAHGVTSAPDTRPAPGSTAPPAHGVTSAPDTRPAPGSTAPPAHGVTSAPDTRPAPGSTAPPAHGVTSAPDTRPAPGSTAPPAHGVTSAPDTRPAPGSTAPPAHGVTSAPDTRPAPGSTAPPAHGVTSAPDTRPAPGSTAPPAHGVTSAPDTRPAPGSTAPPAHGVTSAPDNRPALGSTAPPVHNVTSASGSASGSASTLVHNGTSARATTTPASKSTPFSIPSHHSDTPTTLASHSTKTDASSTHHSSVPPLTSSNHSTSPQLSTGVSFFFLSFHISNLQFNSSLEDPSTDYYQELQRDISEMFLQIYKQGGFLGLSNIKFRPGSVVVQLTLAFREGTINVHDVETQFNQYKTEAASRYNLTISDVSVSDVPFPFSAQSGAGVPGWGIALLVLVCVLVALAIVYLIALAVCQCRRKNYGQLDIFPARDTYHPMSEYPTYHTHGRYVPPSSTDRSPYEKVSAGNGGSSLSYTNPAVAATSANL
# These are yes or no findings as the source states them, for the method shown. Some binding calls cover weakened binding; strength is not graded here.
# Target: MUC1抗原 (human) (UniProt P15941)
# Experiment: flow cytometry on MUC1-positive MCF-7 cells, 10 nM bispecific antibody, biotin goat anti-human IgG F(ab')2-specific antibody and PE-streptavidin
binder,measurement,value
"抗CD16A抗原和抗MUC1抗原的双特异性抗体 (bispecific antibody, not shown: a dimerising Fc or GST) DTVLTQSPASLAVSLGQRATISCKASQSVDFDGHSFMNWYQQKPGQPPKLLIYTTSNLESGIPASFSASGSGTDFTLNIHPVEEEDTATYYCQQSNEDPYTFGGGTKLEIKGGGGSQMQLVQSGAEVKKPGASVKVSCKASGYTFTGHYMHWVRQAPGQGLEWMGWIDPVTGGTKYAQNFQGWVTMTRDTSIRTAYMELSRLRSDDTAMYYCAREVTGDRGQFDKWGQGTLVTVASGGGGSGGGGSCPPCPGGGGSQSVLTQPPSVSVAPGKTARITCGGNNIGSKSVHWYQQKPGQAPVLVIYYDSDRPSGIPERFSGSNSGNTATLTISRVEAGDEADYYCQVWDSSSDWVFGGGTKLTVLGGGGSQVTLRESGPALVKPTQTLTLTCTFSGFSLSTSGMGVGWIRQPPGKALEWLAHIWWDDDKRYNPALKSRLTISKDTSKNQVVLTMTNMDPVDTATYYCARINPAWFAYWGQGTLVTVSS",binding,binds
